No constants are given. Whether binding was seen depends on the method and setting. Some binding calls cover weakened binding; strength is not graded here. Sequences can lack the tags named with a protein.
Legend:
[1] = biological target: OLIG2 fluorescent protein fusion (OLIG2-eGFP; OLIG2-Tomato) (UniProt Q13516); assay: fluorescence cross-correlation spectroscopy (FCCS); live HEK293 cells co-transfected with OLIG2-eGFP and OLIG2-Tomato, measured in the cell nucleus; relative cross-correlation amplitude (RCA) against eGFP and Tomato alone; untreated or treated with CT-179 for 1 h at 37 °C
[2] = biological target: OLIG2 fluorescent protein fusion (OLIG2-eGFP; OLIG2-Tomato) (UniProt Q13516); assay: molecular brightness (counts per second per molecule, CPM) from fluorescence autocorrelation; live HEK293 cells expressing OLIG2-eGFP; untreated or treated with 1 μM or 10 μM CT-179

binding [1]: binds
binding [2]: binds
B1: OLIG2 fluorescent protein fusion (OLIG2-eGFP; OLIG2-Tomato) (protein, UniProt Q13516 1-323)
chain: MDSDASLVSSRPSSPEPDDLFLPARSKGSSGSAFTGGTVSSSTPSDCPPELSAELRGAMGSAGAHPGDKLGGSGFKSSSSSTSSSTSSAAASSTKKDKKQMTEPELQQLRLKINSRERKRMHDLNIAMDGLREVMPYAHGPSVRKLSKIATLLLARNYILMLTNSLEEMKRLVSEIYGGHHAGFHPSACGGLAHSAPLPAATAHPAAAAHAAHHPAVHHPILPPAAAAAAAAAAAAAVSSASLPGSGLPSVGSIRPPHGLLKSPSAAAAAPLGGGGGGSGASGGFQHWGGMPCPCSMCQVPPPHHHVSAMGAGSLPRLTSDAK
